The data set can be described thus: general procedure: Fmoc solid-phase peptide synthesis; rink amide MBHA LL resin; HATU, DIPEA. Conditions: whole synthesis.

Numbered stars: 1 amine (or outer) side, 2 acyl side, 3 side chain; on linkers, the order of the positions; unused ones are H or OH. Square brackets hold non-standard residues; d marks the D form. * marks the point of attachment. DOTA = O=C(O)CN1CCN(CC(=O)O)CCN(CC(=O)*)CCN(CC(=O)O)CC1; X2 = O=C(Cn1cc([C@H](Cc2ccc(O)cc2)N[*:1])nn1)[*:2]; Nle = CCCC[C@H](N)C(=O)O Where only a bound is given, the exact number is not on record here.

For DOTA[Nle15, Ala11-ψ[Tz]-Tyr12]-MG11, under “scale 0.0394 mmol”, the “final purity (method not given)” value was >99% and the isolated yield is 23.7%.
For the substance DOTA[Nle15, Asp16-ψ[Tz]-Phe17]-MG11, for the setting “scale 0.0379 mmol”, the “final purity (method not given)” value stood at 98.5% and the isolated yield turned out to be 10.1%.
Consider DOTA[Nle15, DGlu10-ψ[Tz]-Ala11]-MG11, for which, under “scale 0.0403 mmol”, the “final purity (method not given)” value is on record as >99% and the isolated yield is reported as 12.5%.
On to DOTA[Nle15, Gly13-ψ[Tz]-Trp14]-MG11, for which, under “scale 0.0324 mmol”, the “final purity (method not given)” value came out at 98.6% and the isolated yield is on record as 12.5%.
Regarding DOTA[Nle15, Nle15-ψ[Tz]-Asp16]-MG11, where the note is “scale 0.0399 mmol”, the “final purity (method not given)” value is >99% and the isolated yield turned out to be 76.3%.
For DOTA[Nle15, Phe17-ψ[Tz]-H]-MG11, where the note is “scale 0.0511 mmol”, the “final purity (method not given)” value is >99% and the isolated yield was 35.7%.
On to DOTA[Nle15, Trp14-ψ[Tz]-Nle15]-MG11, for which, for the setting “scale 0.041 mmol”, the “final purity (method not given)” value stood at 97% and the isolated yield was determined as 61.8%.
As to “DOTA[Nle^15, Ala^11-ψ[Tz]-Tyr^12, Trp^14-ψ[Tz]-Nle^15]MG11”, for the setting “scale 0.0507 mmol”, the “final purity (method not given)” value is on record as >99% and the isolated yield was 25.0%.
Take “DOTA[Nle^15, Ala^11-ψ[Tz]-Tyr^12-ψ[Tz]-Gly^13]MG11”: under “scale 0.0495 mmol”, the “final purity (method not given)” value is listed as 97.3% and the isolated yield was determined as 5.9%.
Regarding “DOTA[Nle^15, DGlu^10-ψ[Tz]-Ala^11-Tyr^12-ψ[Tz]-Gly^13]MG11”, under “scale 0.0528 mmol”, the “final purity (method not given)” value was 97.9% and the isolated yield worked out at 10.1%.
With “DOTA[Nle^15, DGlu^10-ψ[Tz]-Ala^11-ψ[Tz]-Tyr^12]MG11”, where the note is “scale 0.0506 mmol”, the “final purity (method not given)” value came out at 97.8% and the isolated yield stood at 10.6%.
Turning to “DOTA[Nle^15, Tyr^12-ψ[Tz]-Gly^13-Trp^14-ψ[Tz]-Nle^15]-MG11”, under “scale 0.0466 mmol”, the “final purity (method not given)” value worked out at 97.0% and the isolated yield amounted to 11.6%.
Take “DOTA[Nle^15, Tyr^12-ψ[Tz]-Gly^13-ψ[Tz]-Trp^14]MG11”: for the setting “scale 0.0506 mmol”, the “final purity (method not given)” value is listed as 98.2% and the isolated yield worked out at 10.8%.
Turning to [Trp-ψ[Tz]-Nle]-PPF11N, under “scale 0.0334 mmol”, the “final purity (method not given)” value is reported as >99% and the isolated yield was 20.9%.
As for [Tyr-ψ[Tz]-Gly]-PPF11N, under “scale 0.0325 mmol”, the “final purity (method not given)” value is listed as 98.1% and the isolated yield worked out at 19.6%.
Consider “{DOTA}-[dE]A[X2]W[Nle]DF-NH2 (SMILES CCCC[C@H](NC(=O)[C@H](Cc1c[nH]c2ccccc12)NC(=O)Cn1cc([C@H](Cc2ccc(O)cc2)NC(=O)[C@H](C)NC(=O)[C@@H](CCC(=O)O)NC(=O)CN2CCN(CC(=O)O)CCN(CC(=O)O)CCN(CC(=O)O)CC2)nn1)C(=O)N[C@@H](CC(=O)O)C(=O)N[C@@H](Cc1ccccc1)C(N)=O)”, for which, where the note is “scale 0.04101 mmol”, the “final purity (method not given)” value is on record as >99% and the isolated yield is reported as 13.9%.
